Test results as given in PubChem BioAssay AID226 (DTP/NCI, 2004).
The list is a part of this screen's results and no random one: it gathers some chemical classes. Not every dose and run of a compound is shown. T/C gives the treated animals as a percentage of the vehicle group. For survival time, this PubChem deposit counts one and a half times the control or more as active, and values a quarter to a half above the control carry no call in these data; other NCI protocols may use other cut-offs. Some entries show no survivor count and are marked so; the dose need not have been tolerated. Schedule codes are those of the source, read here as Q, the interval in days (D) or hours (H), X, the number of doses.

Test system: B6C3F1 mice, intracerebral ependymoblastoma, median survival T/C
Test: NCI In Vivo Anticancer Drug Screen. Data for tumor model Ependymoblastoma (intracerebral) in B6C3F1 mice
Settings: T/C endpoint: median survival time, schedule: Q01DX001 (ip), vehicle: saline, higher T/C = longer survival
Experimental: The antitumor activity of compounds was measured in mice bearing transplantable tumors. Survival or tumor size were measured and the results are expressed as the measurement made in the treated group (T) divided by the measurement made in the vehicle treated control group (C). The tumor model used in this assay is Ependymoblastoma (intracerebral) in B6C3F1 mice

SMILES: NC1CCCCC1.NP(=O)(O)N(CCCl)CCCl
- T/C (dose: 40.0 mg/kg/injection): 100 % of control [survivor count not shown]
- T/C (dose: 80.0 mg/kg/injection): 98 % of control [survivor count not shown]
- T/C (dose: 160.0 mg/kg/injection): 110 % of control [survivor count not shown]
- T/C (dose: 320.0 mg/kg/injection): 105 % of control [survivor count not shown]
